The target of this test is glutathione S-transferase (GST) fused with the SH2 domain of WT 3BP2. The test can be described thus: affinity purification with mass spectrometry; lysate of curdlan-stimulated BMDCs divided equally; pull-down with GST-3BP2-SH2-WT or -RK on GSH beads; co-precipitated proteins digested with trypsin and analysed by DIA-MS; only the target purified.

Results are given in words; binding and its absence hold for the method and conditions named. In cells and extracts the contact can be indirect. These calls come from enrichment with a bait or labelling near it, and not all partners need be listed.

B1: hematopoietic cell-specific Lyn substrate 1 (protein, UniProt P49710 1-486)
chain: MWKSVVGHDVSVSVETQGDDWDTDPDFVNDISEKEQRWGAKTIEGSGRTEHINIHQLRNKVSEEHDILKKKELESGPKASHGYGGRFGVERDRMDKSAVGHEYVADVEKHSSQTDAARGFGGKYGVERDRADKSAVGFDYKGEVEKHASQKDYSHGFGGRYGVEKDKRDKAALGYDYKGETEKHESQRDYAKGFGGQYGIQKDRVDKSAVGFNEMEAPTTAYKKTTPIEAASSGARGLKAKFESLAEEKRKREEEEKAQQMARQQQERKAVVKMSREVQQPSMPVEEPAAPAQLPKKISSEVWPPAESHLPPESQPVRSRREYPVPSLPTRQSPLQNHLEDNEEPPALPPRTPEGLQVVEEPVYEAAPELEPEPEPDYEPEPETEPDYEDVGELDRQDEDAEGDYEDVLEPEDTPSLSYQAGPSAGAGGAGISAIALYDYQGEGSDELSFDPDDIITDIEMVDEGWWRGQCRGHFGLFPANYVKLL
Turning to B1, the binding entry is “binds”.

The values are drawn from publication PMC11647625.
